Reference: the supplement of paper PMC10331698
± gives the standard deviation of the averaged measurements. Most values lie at the level of the controls, where differences are scatter.

Columns and labels:
Assay in all cases: level (log10 ratio to DMSO vehicle control); higher = higher biomarker level / cell amount than vehicle control
[1] = compound: O=C(O)C(F)(F)C(F)(F)C(F)(F)C(F)(F)C(F)(F)C(F)(F)C(F)(F)C(F)(F)C(F)(F)C(F)F [11-H-Perfluoroundecanoic acid]; details: 2200 nM; in DMSO
Experimental: (§1)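 BioMAP Diversity Plus panel of 12 human primary cell co-culture systems (3C, 4H, LPS, SAg, BT, BF4T, BE3C, CASM3C, HDF3CGF, KF3CT, MyoF, Mphg). Compounds were added 1 h before stimulation and left for 24 h (MyoF 48 h; BT 72 h for soluble read-outs or 6 d for IgG). Biomarkers were read by ELISA, cytotoxicity by SRB, PBMC viability and proliferation by Alamar Blue. Each well value was divided by the mean of 8 DMSO control wells on the same plate and log10 transformed; duplicate blinded samples were tested at 4 concentrations.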

[2] = compound: CCCCCCCCC(F)(F)C(F)(F)C(F)(F)C(F)(F)C(F)(F)C(F)(F)F [1-(Perfluorohexyl)octane]; details: in DMSO
Experimental: as §1

[3] = compound: OCCC(F)(F)C(F)(F)C(F)(F)C(F)(F)C(F)(F)C(F)(F)F [6:2 Fluorotelomer alcohol]; details: 2200 nM; in DMSO
Experimental: as §1

[4] = compound: NCC(F)(F)C(F)(F)C(F)(F)C(F)(F)C(F)(F)C(F)(F)C(F)(F)F [1H,1H-Perfluorooctylamine]; details: 2200 nM; in DMSO
Experimental: as §1

[5] = compound: CCN(CCO)S(=O)(=O)C(F)(F)C(F)(F)C(F)(F)C(F)(F)C(F)(F)C(F)(F)C(F)(F)C(F)(F)F [N-Ethyl-N-(2-hydroxyethyl)perfluorooctanesulfonamide]; details: in DMSO
Experimental: as §1

[6] = compound: O=C(O)C(F)(F)C(F)(F)C(F)(F)C(F)(F)F [Perfluoropentanoic acid]; details: in DMSO
Experimental: as §1

[7] = compound: FC(F)(F)C(F)(F)C(F)(F)C(F)(F)C(F)(F)C(F)(F)CC1CO1 [3-(Perfluorohexyl)-1,2-epoxypropane]; details: 2200 nM; in DMSO
Experimental: as §1

[8] = compound: NC(=O)C(F)(F)C(F)(F)C(F)(F)F [Heptafluorobutyramide]; details: 2200 nM; in DMSO
Experimental: as §1

[9] = compound: O=C(O)C(F)(F)C(F)(F)C(F)(F)C(F)(F)C(=O)O [Octafluoroadipic acid]; details: 2200 nM; in DMSO
Experimental: as §1

[10] = compound: OCC(F)(F)C(F)(F)C(F)(F)F [1H,1H-Heptafluorobutanol]; details: 2200 nM; in DMSO
Experimental: as §1

[11] = compound: CC(C)(C)C(=O)CC(=O)C(F)(F)C(F)(F)C(F)(F)F [(Heptafluorobutanoyl)pivaloylmethane]; details: 2200 nM; in DMSO
Experimental: as §1

[12] = compound: O=C(O)C(F)(F)C(F)(F)C(F)(F)OC(F)(F)F [Perfluoro(4-methoxybutanoic) acid]; details: 2200 nM; in DMSO
Experimental: as §1

[13] = compound: Cc1ccc(S(=O)(=O)OCC(F)(F)C(F)(F)C(F)(F)C(F)(F)C(F)(F)C(F)F)cc1 [1H,1H,7H-Perfluoroheptyl 4-methylbenzenesulfonate]; details: 2200 nM; in DMSO
Experimental: as §1

[14] = compound: O=C(O)C(F)(F)C(F)(F)C(F)(F)C(F)(F)C(F)(F)C(F)(F)F [Perfluoroheptanoic acid]; details: in DMSO
Experimental: as §1

[15] = compound: CN(C(=O)C(F)(F)C(F)(F)C(F)(F)F)[Si](C)(C)C [N-Methyl-N-trimethylsilylheptafluorobutyramide]; details: 2200 nM; in DMSO
Experimental: as §1

[16] = compound: O=S(=O)(O)CCC(F)(F)C(F)(F)C(F)(F)C(F)(F)C(F)(F)C(F)(F)C(F)(F)C(F)(F)F [8:2 Fluorotelomer sulfonic acid]; details: in DMSO
Experimental: as §1

Row | Test System | level (log10) [1] | level (log10) ([2]; 740 nM) | level (log10) ([2]; 2200 nM) | level (log10) [3] | level (log10) [4] | level (log10) ([5]; 2200 nM) | level (log10) ([5]; 6700 nM) | level (log10) ([5]; 20000 nM) | level (log10) ([6]; 2200 nM) | level (log10) ([6]; 6700 nM) | level (log10) ([6]; 20000 nM) | level (log10) ([6]; 60000 nM) | level (log10) [7] | level (log10) [8] | level (log10) [9] | level (log10) [10] | level (log10) [11] | level (log10) [12] | level (log10) [13] | level (log10) ([14]; 2200 nM) | level (log10) ([14]; 6700 nM) | level (log10) ([14]; 20000 nM) | level (log10) ([14]; 60000 nM) | level (log10) [15] | level (log10) ([16]; 2200 nM) | level (log10) ([16]; 6700 nM) | level (log10) ([16]; 20000 nM) | level (log10) ([16]; 60000 nM)
1 | BF4T:uPA | -0.01 ± 0.021 | -0.0045 ± 0.00071 | -0.012 ± 0.0028 | 0.004 ± 0.011 | 0.0025 ± 0.042 | 0.011 ± 0.0099 | 0.008 ± 0.0028 | 0.0055 ± 0.012 | -0.0085 ± 0.019 | -0.0315 ± 0.029 | -0.031 ± 0.023 | -0.0175 ± 0.033 | 0.0165 ± 0.05 | 0.007 ± 0.0085 | 0.0065 ± 0.011 | -0.004 ± 0.0042 | -0.0115 ± 0.00071 | 0.0015 ± 0.0035 | 0.0075 ± 0.03 | 0.007 ± 0.038 | -0.017 ± 0.0057 | -0.0115 ± 0.012 | 0.009 ± 0.0085 | -0.0115 ± 0.023 | -0.001 ± 0.023 | 0.012 ± 0.0085 | 0.0055 ± 0.00071 | 0.0175 ± 0.0092
2 | MyoF:Collagen IV | 0.022 ± 0.016 | 0.031 ± 0.025 | 0.017 | 0.0155 ± 0.026 | 0.0015 ± 0.011 | -0.0075 ± 0.016 | -0.0665 ± 0.013 | 0.078 ± 0.035 | -0.028 ± 0.0071 | -0.007 ± 0.025 | -0.012 ± 0.016 | -0.0025 ± 0.023 | 0.0335 ± 0.049 | 0.007 ± 0.055 | 0.027 ± 0.034 | -0.028 ± 0.0014 | -0.048 ± 0.018 | 0.013 ± 0.047 | 0.0225 ± 0.005 | 0.012 ± 0.071 | -0.0175 ± 0.022 | -0.014 ± 0.013 | 0.0305 ± 0.07 | 0.0285 ± 0.036 | -0.0035 ± 0.047 | -0.0215 ± 0.019 | -0.0335 ± 0.036 | 0.005 ± 0.0099
3 | 4H:CD62P/P-selectin | 0.0245 ± 0.0021 | -0.0295 ± 0.057 | 0.0025 ± 0.044 | -0.004 ± 0.0057 | -0.0175 ± 0.012 | 0.007 ± 0.014 | -0.079 ± 0.0014 | -0.142 ± 0.044 | 0.003 ± 0.0014 | -0.0025 ± 0.067 | -0.023 ± 0.03 | -0.0285 ± 0.043 | -0.009 ± 0.017 | 0.025 ± 0.0071 | -0.012 ± 0.017 | 0.0695 ± 0.066 | -0.0205 ± 0.069 | -0.004 ± 0.05 | 0.018 ± 0.03 | 0.009 ± 0.0014 | 0.007 ± 0.018 | 0.0035 ± 0.016 | 0.0605 ± 0.05 | -0.0035 ± 0.015 | -0.0205 ± 0.0021 | -0.0315 ± 0.09 | -0.034 ± 0.099 | -0.015 ± 0.071
4 | MyoF:alpha-SM Actin | 0.002 ± 0.045 | -0.0035 ± 0.021 | 0.0065 ± 0.015 | 0.0025 ± 0.022 | 0.0005 ± 0.023 | 0.0135 ± 0.043 | 0.0845 ± 0.023 | -0.235 ± 0.057 | 0.0215 ± 0.047 | 0.0265 ± 0.07 | 0.0355 ± 0.052 | 0.0485 ± 0.044 | 0.0375 ± 0.018 | 0.008 ± 0.025 | 0.0185 ± 0.012 | 0.0335 ± 0.005 | 0.0255 ± 0.047 | -0.0005 ± 0.0021 | -0.006 ± 0.0028 | -0.0275 ± 0.023 | -0.028 ± 0.035 | -0.0365 ± 0.022 | -0.022 ± 0.024 | 0.0085 ± 0.028 | -0.0125 ± 0.11 | 0.034 ± 0.02 | 0.001 ± 0.014 | -0.0125 ± 0.025
5 | KF3CT:CD54/ICAM-1 | -0.0235 ± 0.054 | 0.0025 ± 0.028 | -0.016 ± 0.023 | 0.0095 ± 0.026 | -0.0165 ± 0.011 | -0.0145 ± 0.018 | 0.0415 ± 0.0078 | 0.002 ± 0.0028 | -0.0075 ± 0.039 | 0.004 ± 0.0057 | 0.001 ± 0.013 | 0.016 ± 0.028 | 0.0225 ± 0.035 | -0.0035 ± 0.022 | 0.0005 ± 0.013 | 0.0015 ± 0.0035 | -0.011 ± 0.021 | -0.001 ± 0.023 | 0 ± 0.033 | 0.0015 ± 0.0078 | -0.023 ± 0.0042 | -0.0085 ± 0.0035 | -0.0315 ± 0.00071 | -0.003 ± 0.013 | -0.0165 ± 0.00071 | -0.026 ± 0.02 | -0.0495 ± 0.018 | -0.0515 ± 0.005
6 | BF4T:CXCL8/IL-8 | 0.04 ± 0.04 | 0.0025 ± 0.005 | -0.0005 ± 0.012 | 0.0255 ± 0.046 | 0.036 ± 0.054 | 0.0115 ± 0.066 | -0.015 ± 0.014 | -0.004 ± 0.0014 | -0.013 ± 0.018 | -0.0345 ± 0.013 | -0.0295 ± 0.013 | -0.0105 ± 0.035 | 0.0035 ± 0.029 | 0.033 ± 0.047 | 0.043 ± 0.016 | 0.082 ± 0.034 | 0.062 ± 0.075 | 0.0425 ± 0.098 | 0.0125 ± 0.005 | 0.028 ± 0.0014 | 0.017 ± 0.028 | 0.0155 ± 0.013 | 0.0145 ± 0.036 | 0.0085 ± 0.029 | 0.008 ± 0.0071 | 0.0015 ± 0.0035 | -0.0105 ± 0.0078 | -0.0055 ± 0.0078
7 | MyoF:CD106/VCAM-1 | 0.006 | -0.0135 ± 0.005 | -0.002 ± 0.013 | 0.003 ± 0.023 | -0.0255 ± 0.028 | -0.031 ± 0.014 | -0.0675 ± 0.0064 | -0.534 ± 0.053 | -0.003 ± 0.025 | 0.0025 ± 0.005 | 0.001 | -0.001 ± 0.0057 | 0.0095 ± 0.025 | -0.0425 ± 0.036 | -0.0325 ± 0.00071 | -0.0005 ± 0.015 | -0.021 ± 0.018 | -0.038 ± 0.0057 | -0.001 ± 0.0014 | 0.0095 ± 0.013 | -0.013 ± 0.0071 | -0.004 ± 0.016 | -0.0125 ± 0.015 | -0.0185 ± 0.005 | -0.0085 ± 0.005 | -0.0035 ± 0.0021 | -0.0325 ± 0.016 | -0.084 ± 0.02
8 | KF3CT:CXCL10/IP-10 | -0.0045 ± 0.015 | 0.0005 ± 0.022 | 0.0035 ± 0.013 | 0.0125 ± 0.0021 | 0.001 ± 0.0057 | -0.005 ± 0.0028 | -0.0395 ± 0.022 | -0.107 ± 0.015 | -0.006 ± 0.0042 | 0.002 ± 0.0042 | -0.0085 ± 0.0035 | 0.0025 ± 0.016 | 0.0345 ± 0.0092 | 0.005 ± 0.017 | 0.0085 ± 0.013 | 0.0035 ± 0.0064 | 0 ± 0.02 | 0.0005 ± 0.016 | -0.0185 ± 0.013 | 0.003 ± 0.028 | -0.003 ± 0.018 | 0.0125 ± 0.026 | 0.0155 ± 0.023 | -0.003 ± 0.0099 | -0.012 | -0.015 ± 0.0028 | -0.044 ± 0.0042 | -0.0495 ± 0.00071
9 | lMphg:SRB | 0.0055 ± 0.0078 | -0.007 ± 0.0071 | 0.002 ± 0.0085 | -0.0135 ± 0.012 | -0.017 ± 0.014 | -0.0225 ± 0.032 | -0.0215 ± 0.0078 | -0.0435 ± 0.022 | -0.0005 ± 0.018 | -0.0125 ± 0.0035 | -0.0065 ± 0.0092 | 0.01 ± 0.018 | 0.014 ± 0.0085 | 0.0045 ± 0.005 | 0.001 ± 0.0071 | -0.0095 ± 0.0064 | -0.006 ± 0.0071 | -0.0155 ± 0.011 | -0.0095 ± 0.0021 | -0.003 ± 0.0057 | -0.013 ± 0.02 | -0.01 ± 0.0028 | -0.002 ± 0.0014 | 0.002 | -0.0125 ± 0.0092 | -0.006 ± 0.02 | -0.013 ± 0.017 | -0.029 ± 0.0057
